Patent US20240181006A1, “POLYPEPTIDES BINDING ADAMTS5, MMP13 AND AGGRECAN” (Merck Patent GmbH, priority 2017, published 2024)
These are yes or no findings as the source states them, for the method shown. Some results given as binding are weak or reduced against the parent protein; the word gives no strength.

Chains of the proteins cited; added tags and fusions are not shown. Lines headed by an entry give the natural chain unless they say otherwise; changes in a name come on top.
UniProt Q9UNA0: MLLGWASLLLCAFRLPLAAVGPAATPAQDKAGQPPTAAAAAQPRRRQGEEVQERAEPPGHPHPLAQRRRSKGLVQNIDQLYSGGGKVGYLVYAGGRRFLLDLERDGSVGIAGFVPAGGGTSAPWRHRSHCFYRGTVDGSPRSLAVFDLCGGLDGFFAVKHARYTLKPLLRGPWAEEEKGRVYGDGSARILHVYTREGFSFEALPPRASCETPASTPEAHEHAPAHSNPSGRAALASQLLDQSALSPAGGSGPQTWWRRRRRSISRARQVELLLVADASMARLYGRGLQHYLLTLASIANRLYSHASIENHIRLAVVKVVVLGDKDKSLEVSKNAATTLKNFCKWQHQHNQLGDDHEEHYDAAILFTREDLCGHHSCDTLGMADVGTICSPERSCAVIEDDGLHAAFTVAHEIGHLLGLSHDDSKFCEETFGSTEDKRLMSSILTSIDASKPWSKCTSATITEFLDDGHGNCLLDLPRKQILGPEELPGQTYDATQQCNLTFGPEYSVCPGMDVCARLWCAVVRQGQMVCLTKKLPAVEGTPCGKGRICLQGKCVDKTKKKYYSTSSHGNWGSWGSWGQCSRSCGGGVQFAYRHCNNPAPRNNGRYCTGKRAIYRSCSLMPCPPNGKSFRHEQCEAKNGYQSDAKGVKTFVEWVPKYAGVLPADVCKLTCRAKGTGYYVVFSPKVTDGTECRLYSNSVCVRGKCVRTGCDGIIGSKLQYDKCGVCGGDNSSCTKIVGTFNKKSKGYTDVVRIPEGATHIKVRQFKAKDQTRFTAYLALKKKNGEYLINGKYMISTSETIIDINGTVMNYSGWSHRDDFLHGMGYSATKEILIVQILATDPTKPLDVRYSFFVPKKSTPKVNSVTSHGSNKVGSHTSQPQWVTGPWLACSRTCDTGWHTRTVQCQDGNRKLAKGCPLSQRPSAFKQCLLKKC

Assays:
[1] = target: cynomolgus ADAMTS5 (cynomolgus); test: SPR off-rate analysis
[2] = target: human ADAMTS5 (human) (UniProt Q9UNA0); test: SPR off-rate analysis
[3] = target: human ADAMTS5 (human) (UniProt Q9UNA0); test: screening; binding ELISA on recombinant human ADAMTS5

binding [1]: binds
binding [2]: binds
binding [3]: binds
B1: anti-ADAMTS5 ISVD 02F03 (VHH)
VHH: EVQLVESGGGVVQPGGSLRLSCAASGRTVSSYAMGWFRQAPGKEREFVAGISRSAERTYYVDSLKGRFTISRDNSKNTVYLQMNSLRPEDTALYYCAADLDPNRIFSREEYAYWGQGTLVTVSS
